Data reported in the supplement of paper PMC6078165.
The reference is the same well before dosing, and untreated signal decays as well.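 Fibroblast labels name human fibroblasts: mostly primary ones from tissues such as uterus (C12385, HUF), lung (H6013), bone (Hs27A), adrenal (HADF) and skin (WS1), plus mammary HMF and breast cancer-associated Hs343T. The cancer cells are basal-like or mesenchymal-like triple-negative breast cancer lines. The paper calls a changed response a hit when it shifts by more than 3x the replicate standard deviation. The tissue of the other fibroblasts is not given here.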

System: MDAMB231
Assay: relative JC-1 red fluorescence (viability) vs pre-drug, coculture with fibroblast (fraction); higher = more viable cancer cells
Description: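 JC-1 labelled TNBC cells cocultured 1:1 (1,500 cells each) with CellTrace Violet stained primary or stromal fibroblasts in 384-well plates in FluoroBrite medium, treated with one of 42 anticancer drugs at 0.1, 1, 10 or 100 uM. JC-1 red fluorescence (mitochondrial integrity in cancer cells only) was read by plate reader every 8 h for 72 h. Values are normalised to each well's pre-drug value. The stock of one drug was tenfold lower, so its dose labels may be too high.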

CC(C)(C#N)c1cc(Cn2cncn2)cc(C(C)(C)C#N)c1 [Anastrozole]
relative JC-1 red fluorescence
Settings	8 h	16 h	24 h	32 h	40 h	48 h	56 h	64 h	72 h
0.1 µM, coculture fibroblast: C12385	0.784	0.724	0.657	0.627	0.568	0.54	0.498	0.488	0.475
0.1 µM, coculture fibroblast: H6013	0.894	0.819	0.771	0.74	0.7	0.681	0.659	0.637	0.604
0.1 µM, coculture fibroblast: H6019	0.7201	0.643	0.5865	0.5451	0.483	0.4592	0.419	0.4	0.367
0.1 µM, coculture fibroblast: H6076	0.87293	0.774	0.7	0.662	0.616	0.574	0.541	0.522	0.506
0.1 µM, coculture fibroblast: H6231	0.899	0.77	0.704	0.649	0.593	0.56	0.523	0.5	0.477
0.1 µM, coculture fibroblast: HADF	0.88	0.828	0.784	0.735	0.692	0.642	0.629	0.604	0.557
0.1 µM, coculture fibroblast: HCFa	0.8809	0.804	0.7434	0.705	0.65	0.592	0.564	0.537	0.481
0.1 µM, coculture fibroblast: HCPF	0.882	0.742	0.662	0.613	0.553	0.509	0.468	0.436	0.408
0.1 µM, coculture fibroblast: HHSteC	0.899	0.882	0.845	0.811	0.79	0.763	0.734	0.73	0.692
0.1 µM, coculture fibroblast: HMF	0.879	0.782	0.702	0.664	0.6035	0.564	0.525	0.501	0.486
0.1 µM, coculture fibroblast: HPFa	0.9189	0.866	0.817	0.755	0.734	0.693	0.635	0.602	0.542
0.1 µM, coculture fibroblast: HUF	0.8536	0.702	0.75	0.63	0.575	0.563	0.513	0.519	0.498
0.1 µM, coculture fibroblast: Hs5	0.885	0.8011	0.7269	0.678	0.622	0.562	0.514	0.475	0.447
0.1 µM, coculture fibroblast: Hs27A	0.885	0.8092	0.771	0.753	0.69	0.628	0.627	0.601	0.551
0.1 µM, coculture fibroblast: Hs343T	0.8825	0.765	0.687	0.633	0.573	0.526	0.475	0.45	0.422
0.1 µM, coculture fibroblast: WS1	0.726	0.668	0.565	0.518	0.46	0.428	0.375	0.359	0.332
1 µM, coculture fibroblast: C12385	0.7446	0.696	0.6655	0.602	0.539	0.512	0.475	0.472	0.465
1 µM, coculture fibroblast: H6013	0.9016	0.827	0.758	0.734	0.682	0.659	0.633	0.611	0.577
1 µM, coculture fibroblast: H6019	0.7333	0.632	0.638	0.566	0.523	0.511	0.467	0.47	0.438
1 µM, coculture fibroblast: H6076	0.918	0.826	0.755	0.732	0.689	0.642	0.602	0.583	0.565
1 µM, coculture fibroblast: H6231	0.945	0.852	0.751	0.69	0.631	0.593	0.546	0.518	0.487
1 µM, coculture fibroblast: HADF	0.8761	0.8295	0.771	0.74	0.712	0.6961	0.65626	0.644	0.594
1 µM, coculture fibroblast: HCFa	0.8909	0.818	0.761	0.72	0.657	0.615	0.573	0.536	0.498
1 µM, coculture fibroblast: HCPF	0.8691	0.764	0.686	0.655	0.599	0.553	0.522	0.5	0.479
1 µM, coculture fibroblast: HHSteC	0.911	0.848	0.8262	0.79023	0.75	0.72	0.672	0.648	0.607
1 µM, coculture fibroblast: HMF	0.92	0.841	0.776	0.741	0.691	0.661	0.632	0.611	0.583
1 µM, coculture fibroblast: HPFa	0.96852	0.897	0.835	0.766	0.732	0.671	0.605	0.5729	0.503
1 µM, coculture fibroblast: HUF	0.847	0.76	0.808	0.676	0.611	0.604	0.544	0.544	0.526
1 µM, coculture fibroblast: Hs5	0.8987	0.819	0.786	0.763	0.729	0.686	0.672	0.649	0.63
1 µM, coculture fibroblast: Hs27A	0.825	0.771	0.738	0.727	0.685	0.654	0.628	0.616	0.541
1 µM, coculture fibroblast: Hs343T	0.888	0.779	0.687	0.649	0.576	0.526	0.465	0.438	0.397
1 µM, coculture fibroblast: WS1	0.7393	0.638	0.643	0.538	0.496	0.481	0.433	0.437	0.419
10 µM, coculture fibroblast: C12385	0.799	0.745	0.68	0.663	0.605	0.577	0.533	0.528	0.506
10 µM, coculture fibroblast: H6013	0.9	0.85	0.818	0.806	0.772	0.75	0.747	0.72	0.682
10 µM, coculture fibroblast: H6019	0.794	0.733	0.696	0.673	0.636	0.624	0.577	0.559	0.516
10 µM, coculture fibroblast: H6076	0.935	0.846	0.771	0.738	0.689	0.644	0.608	0.578	0.549
10 µM, coculture fibroblast: H6231	0.911	0.799	0.736	0.681	0.632	0.599	0.549	0.524	0.503
10 µM, coculture fibroblast: HADF	0.913	0.882	0.846	0.8	0.761	0.698	0.691	0.68	0.631
10 µM, coculture fibroblast: HCFa	0.887	0.8268	0.7768	0.741	0.6774	0.62	0.607	0.569	0.522
10 µM, coculture fibroblast: HCPF	0.951	0.845	0.763	0.735	0.681	0.631	0.584	0.551	0.52
10 µM, coculture fibroblast: HHSteC	0.894	0.839	0.7839	0.737	0.694	0.667	0.62	0.596	0.561
10 µM, coculture fibroblast: HMF	0.891	0.8103	0.731	0.687	0.625	0.584	0.539	0.516	0.482
10 µM, coculture fibroblast: HPFa	0.966	0.8958	0.834	0.789	0.764	0.718	0.674	0.643	0.582
10 µM, coculture fibroblast: HUF	0.8726	0.717	0.681	0.59	0.522	0.497	0.442	0.426	0.41
10 µM, coculture fibroblast: Hs5	0.9	0.81	0.7316	0.681	0.617	0.555	0.511	0.478	0.45
10 µM, coculture fibroblast: Hs27A	0.9013	0.856	0.817	0.798	0.725	0.647	0.654	0.625	0.579
10 µM, coculture fibroblast: Hs343T	0.877	0.782	0.707	0.671	0.624	0.571	0.508	0.489	0.453
10 µM, coculture fibroblast: WS1	0.7905	0.718	0.646	0.6179	0.57	0.537	0.492	0.473	0.44
100 µM, coculture fibroblast: C12385	0.797	0.7873	0.718	0.739	0.695	0.673	0.638	0.634	0.616
100 µM, coculture fibroblast: H6013	0.9085	0.869	0.851	0.86	0.842	0.815	0.819	0.792	0.76
100 µM, coculture fibroblast: H6019	0.827	0.787	0.74	0.784	0.772	0.766	0.725	0.714	0.676
100 µM, coculture fibroblast: H6076	0.8961	0.82	0.802	0.7905	0.7694	0.736	0.721	0.718	0.706
100 µM, coculture fibroblast: H6231	0.947	0.8987	0.8391	0.796	0.7574	0.7314	0.6857	0.6674	0.6305
100 µM, coculture fibroblast: HADF	0.907	0.881	0.851	0.841	0.807	0.76	0.7687	0.7594	0.724
100 µM, coculture fibroblast: HCFa	0.91	0.875	0.868	0.864	0.838	0.799	0.7584	0.72274	0.6759
100 µM, coculture fibroblast: HCPF	0.9283	0.8484	0.795	0.778	0.733	0.697	0.6665	0.639	0.608
100 µM, coculture fibroblast: HHSteC	0.9213	0.8986	0.8643	0.831	0.809	0.785	0.762	0.745	0.711
100 µM, coculture fibroblast: HMF	0.9223	0.8515	0.797	0.7803	0.742	0.717	0.6771	0.662	0.643
100 µM, coculture fibroblast: HPFa	0.9578	0.9354	0.8894	0.849	0.83	0.798	0.746	0.727	0.679
100 µM, coculture fibroblast: HUF	0.859	0.789	0.768	0.7004	0.6569	0.635	0.5765	0.561	0.539
100 µM, coculture fibroblast: Hs5	0.918	0.854	0.8068	0.774	0.747	0.702	0.6683	0.6425	0.617
100 µM, coculture fibroblast: Hs27A	0.899	0.856	0.832	0.81	0.767	0.696	0.718	0.698	0.657
100 µM, coculture fibroblast: Hs343T	0.92	0.849	0.837	0.822	0.794	0.764	0.725	0.711	0.691
100 µM, coculture fibroblast: WS1	0.769	0.7291	0.68	0.645	0.6167	0.5975	0.5591	0.5485	0.515
